The test system of this series is HepG2. In words: MTT cell viability assay, HepG2. It counts as cell-based, human. An excerpt:
Curcumin and paclitaxel are used as the positive control.
A general note: Formazan colour is commonly taken as a measure of viable cells.

The structures appear in SMILES notation.

With `COc1c(O)c(O)c2c(=O)c3c(CC=C(C)C)c(CC=C(C)C)c(O)c(O)c3oc2c1CC=C(C)C` [Compound A, 1,2,5,6-tetrahydroxy-3-methoxy-4,7,8-tri(3-methylbut-2-enyl)-xanthone], the OD value was 2.252 (HepG2, compound A 0.8 μg/mL); 2.243 (HepG2, compound A 1.6 μg/mL); 2.076 (HepG2, compound A 3.125 μg/mL); 0.996 (HepG2, compound A 6.25 μg/mL); 0.5955 (HepG2, compound A 12.5 μg/mL); 0.5715 (HepG2, compound A 25 μg/mL). The OD value by setting is: (HepG2, compound A 50 μg/mL) 0.7495; (HepG2, compound A 100 μg/mL) 0.6285.
